According to ChEMBL document CHEMBL4316593 (Eur J Med Chem, 2019):
This continues a long series; more values of the same kind are listed elsewhere.

Assays:
Format in all cases: cell-based
Details in all cases: U-87MG ATCC
[1] = Inhibition of RTK/PI3K/AKT/mTOR signaling in human U87 cells assessed as down regulation of HAUS6 gene expression at cytotoxic IC50 measured after 48 hrs relative to control
[2] = Inhibition of RTK/PI3K/AKT/mTOR signaling in human U87 cells assessed as up regulation of RNA guanine-7 methyltransferase gene expression at cytotoxic IC50 measured after 48 hrs relative to control
[3] = Inhibition of RTK/PI3K/AKT/mTOR signaling in human U87 cells assessed as down regulation of USP38 gene expression at cytotoxic IC50 measured after 48 hrs relative to control
[4] = Inhibition of RTK/PI3K/AKT/mTOR signaling in human U87 cells assessed as down regulation of MCM3 gene expression at cytotoxic IC50 measured after 48 hrs relative to control
[5] = Inhibition of RTK/PI3K/AKT/mTOR signaling in human U87 cells assessed as down regulation of ANKRD50 gene expression at cytotoxic IC50 measured after 48 hrs relative to control
[6] = Inhibition of RTK/PI3K/AKT/mTOR signaling in human U87 cells assessed as up regulation of CAMK1D gene expression at cytotoxic IC50 measured after 48 hrs relative to control
[7] = Inhibition of RTK/PI3K/AKT/mTOR signaling in human U87 cells assessed as down regulation of RSRP1 gene expression at cytotoxic IC50 measured after 48 hrs relative to control
[8] = Inhibition of RTK/PI3K/AKT/mTOR signaling in human U87 cells assessed as up regulation of AGER gene expression at cytotoxic IC50 measured after 48 hrs relative to control
[9] = Inhibition of RTK/PI3K/AKT/mTOR signaling in human U87 cells assessed as up regulation of WSB1 gene expression at cytotoxic IC50 measured after 48 hrs relative to control
[10] = Inhibition of RTK/PI3K/AKT/mTOR signaling in human U87 cells assessed as up regulation of programmed cell death 4 gene expression at cytotoxic IC50 measured after 48 hrs relative to control
[11] = Inhibition of RTK/PI3K/AKT/mTOR signaling in human U87 cells assessed as up regulation of SND1 gene expression at cytotoxic IC50 measured after 48 hrs relative to control
[12] = Inhibition of RTK/PI3K/AKT/mTOR signaling in human U87 cells assessed as down regulation of ZWILCH gene expression at cytotoxic IC50 measured after 48 hrs relative to control
[13] = Inhibition of RTK/PI3K/AKT/mTOR signaling in human U87 cells assessed as up regulation of FK506 binding protein like gene expression at cytotoxic IC50 measured after 48 hrs relative to control
[14] = Inhibition of RTK/PI3K/AKT/mTOR signaling in human U87 cells assessed as up regulation of TNF superfamily member 9 gene expression at cytotoxic IC50 measured after 48 hrs relative to control
[15] = Inhibition of RTK/PI3K/AKT/mTOR signaling in human U87 cells assessed as up regulation of acetyl-CoA acetyltransferase 1 gene expression at cytotoxic IC50 measured after 48 hrs relative to control
[16] = Inhibition of RTK/PI3K/AKT/mTOR signaling in human U87 cells assessed as up regulation of PIP5KL1 gene expression at cytotoxic IC50 measured after 48 hrs relative to control
[17] = Inhibition of RTK/PI3K/AKT/mTOR signaling in human U87 cells assessed as up regulation of tRNA phosphotransferase 1 gene expression at cytotoxic IC50 measured after 48 hrs relative to control
[18] = Inhibition of RTK/PI3K/AKT/mTOR signaling in human U87 cells assessed as down regulation of PPP4R2 gene expression at cytotoxic IC50 measured after 48 hrs relative to control
[19] = Inhibition of RTK/PI3K/AKT/mTOR signaling in human U87 cells assessed as up regulation of cathepsin C gene expression at cytotoxic IC50 measured after 48 hrs relative to control
[20] = Inhibition of RTK/PI3K/AKT/mTOR signaling in human U87 cells assessed as down regulation of MAP3K3 gene expression at cytotoxic IC50 measured after 48 hrs relative to control
[21] = Inhibition of RTK/PI3K/AKT/mTOR signaling in human U87 cells assessed as down regulation of DCAF12 gene expression at cytotoxic IC50 measured after 48 hrs relative to control
[22] = Inhibition of RTK/PI3K/AKT/mTOR signaling in human U87 cells assessed as down regulation of RFK gene expression at cytotoxic IC50 measured after 48 hrs relative to control
[23] = Inhibition of RTK/PI3K/AKT/mTOR signaling in human U87 cells assessed as down regulation of KCNC3 gene expression at cytotoxic IC50 measured after 48 hrs relative to control
[24] = Inhibition of RTK/PI3K/AKT/mTOR signaling in human U87 cells assessed as down regulation of WASHC4 gene expression at cytotoxic IC50 measured after 48 hrs relative to control
[25] = Inhibition of RTK/PI3K/AKT/mTOR signaling in human U87 cells assessed as up regulation of CFAP74 gene expression at cytotoxic IC50 measured after 48 hrs relative to control
[26] = Inhibition of RTK/PI3K/AKT/mTOR signaling in human U87 cells assessed as up regulation of solute carrier family 6 member 9 gene expression at cytotoxic IC50 measured after 48 hrs relative to control
[27] = Inhibition of RTK/PI3K/AKT/mTOR signaling in human U87 cells assessed as up regulation of DnaJ heat shock protein family (Hsp40) member C16 gene expression at cytotoxic IC50 measured after 48 hrs relative to control
[28] = Inhibition of RTK/PI3K/AKT/mTOR signaling in human U87 cells assessed as down regulation of FUBP1 gene expression at cytotoxic IC50 measured after 48 hrs relative to control
[29] = Inhibition of RTK/PI3K/AKT/mTOR signaling in human U87 cells assessed as down regulation of BRD2 gene expression at cytotoxic IC50 measured after 48 hrs relative to control
[30] = Inhibition of RTK/PI3K/AKT/mTOR signaling in human U87 cells assessed as up regulation of FBXO2 gene expression at cytotoxic IC50 measured after 48 hrs relative to control
[31] = Inhibition of RTK/PI3K/AKT/mTOR signaling in human U87 cells assessed as up regulation of sirtuin 5 gene expression at cytotoxic IC50 measured after 48 hrs relative to control
[32] = Inhibition of RTK/PI3K/AKT/mTOR signaling in human U87 cells assessed as down regulation of KLHDC10 gene expression at cytotoxic IC50 measured after 48 hrs relative to control

`CC(=O)C(=NNc1ccccc1C#N)C(C)=O` gave a log2FC [1] of -0.631, a log2FC [2] of 0.959 and a log2FC [3] of -1.27. For the same compound, the log2FC [4] was -0.685, the log2FC [5] was -1.1 and the log2FC [6] was 1.98. It also gave a log2FC [7] of -1.04, a log2FC [8] of 1.94 and a log2FC [9] of 0.591. It also gave a log2FC [10] of 0.731, a log2FC [11] of 0.36 and a log2FC [12] of -0.984. For the same compound, the log2FC [13] was 1.47, the log2FC [14] was 1.03 and the log2FC [15] was 0.8. The log2FC [16] was 2.48, the log2FC [17] was 0.833 and the log2FC [18] was -0.597. It also gave a log2FC [19] of 1.19, a log2FC [20] of -0.889 and a log2FC [21] of -0.505. The log2FC [22] was -0.916, the log2FC [23] was -1.94 and the log2FC [24] was -0.758. For the same compound, the log2FC [25] was 2.46, the log2FC [26] was 0.954 and the log2FC [27] was 0.767. It also gave a log2FC [28] of -1.74, a log2FC [29] of -0.697 and a log2FC [30] of 0.593. It also gave a log2FC [31] of 1.11 and a log2FC [32] of -0.45.
